According to patent publication US11186548B2 (priority 2017, dated 2021):
Entries after “also recorded” stand apart in the source; their conditions may differ. The name of at least one read-out is uncertain.

System: human cerebral microvascular endothelial cells (HCMECs)
Test: HCMEC/D3 brain endothelial cell permeability assay
Settings: 37° C., zero to two hours

For `C[C@@H](CN1CCCc2ccccc2C1)NC(=O)/C=N/O` [LLNL-02], the “permeability across brain endothelial cells (HCMEC)” value was “good permeability across BBB; also recorded: improved capacity for crossing brain endothelial cells relative to existing reactivators”.
